This note sets out measurements from PMC12412611.

Protein sequences, listed by entry. Tags and fused reporters are not part of them.
UniProt Q96CV9: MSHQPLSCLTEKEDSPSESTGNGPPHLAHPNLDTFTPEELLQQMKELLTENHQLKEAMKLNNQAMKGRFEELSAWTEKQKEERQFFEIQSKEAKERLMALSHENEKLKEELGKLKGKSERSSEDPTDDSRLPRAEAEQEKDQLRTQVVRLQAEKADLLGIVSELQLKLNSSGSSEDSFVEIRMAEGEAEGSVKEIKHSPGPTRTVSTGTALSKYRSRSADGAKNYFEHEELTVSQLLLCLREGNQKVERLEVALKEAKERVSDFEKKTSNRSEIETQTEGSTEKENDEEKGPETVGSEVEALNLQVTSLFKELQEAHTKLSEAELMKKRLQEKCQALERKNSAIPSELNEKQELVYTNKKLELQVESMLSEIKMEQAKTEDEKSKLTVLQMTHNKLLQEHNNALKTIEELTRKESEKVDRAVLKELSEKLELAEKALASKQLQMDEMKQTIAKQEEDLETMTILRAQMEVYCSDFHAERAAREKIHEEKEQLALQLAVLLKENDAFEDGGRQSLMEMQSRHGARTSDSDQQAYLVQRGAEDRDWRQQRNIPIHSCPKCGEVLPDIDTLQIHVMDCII

For test [1], the target named is T1, TBK1 (tank-binding kinase), overexpressed, tag not told for these experiments (UniProt Q9UHD2).
T1 sequence: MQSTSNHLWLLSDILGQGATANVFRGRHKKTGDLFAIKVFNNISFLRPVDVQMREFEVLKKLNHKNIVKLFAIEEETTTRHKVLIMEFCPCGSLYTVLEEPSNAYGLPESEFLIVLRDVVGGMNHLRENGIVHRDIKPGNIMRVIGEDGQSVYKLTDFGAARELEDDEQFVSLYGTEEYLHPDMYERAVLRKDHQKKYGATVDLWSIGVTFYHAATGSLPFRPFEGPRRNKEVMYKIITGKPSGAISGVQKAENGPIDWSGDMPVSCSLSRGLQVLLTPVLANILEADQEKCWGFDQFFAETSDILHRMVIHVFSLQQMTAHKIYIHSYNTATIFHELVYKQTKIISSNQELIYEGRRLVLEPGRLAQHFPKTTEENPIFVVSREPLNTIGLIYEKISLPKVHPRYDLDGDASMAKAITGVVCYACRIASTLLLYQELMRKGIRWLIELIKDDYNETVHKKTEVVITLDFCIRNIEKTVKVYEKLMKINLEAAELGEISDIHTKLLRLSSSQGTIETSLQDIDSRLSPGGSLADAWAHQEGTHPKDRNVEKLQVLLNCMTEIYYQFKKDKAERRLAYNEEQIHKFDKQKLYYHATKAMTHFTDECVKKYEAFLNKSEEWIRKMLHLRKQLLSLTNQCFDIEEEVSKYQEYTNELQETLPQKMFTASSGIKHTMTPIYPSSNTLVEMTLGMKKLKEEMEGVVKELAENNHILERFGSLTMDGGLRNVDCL
Kind of test: co-IP; HEK293T co-transfected with the plasmids; IP lysis buffer with PMSF; anti-Flag beads at 4 °C overnight; immunoblot; some panels with CQ (40 µM, 6 h) and with or without co-expressed GSDMD-CT. On the technique in general: In western blotting, separated proteins are transferred to a membrane and probed.

The target of test [2] is T2, RIG-I (retinoic acid-inducible gene I), overexpressed, tag not told for these experiments (UniProt O95786).
T2 sequence: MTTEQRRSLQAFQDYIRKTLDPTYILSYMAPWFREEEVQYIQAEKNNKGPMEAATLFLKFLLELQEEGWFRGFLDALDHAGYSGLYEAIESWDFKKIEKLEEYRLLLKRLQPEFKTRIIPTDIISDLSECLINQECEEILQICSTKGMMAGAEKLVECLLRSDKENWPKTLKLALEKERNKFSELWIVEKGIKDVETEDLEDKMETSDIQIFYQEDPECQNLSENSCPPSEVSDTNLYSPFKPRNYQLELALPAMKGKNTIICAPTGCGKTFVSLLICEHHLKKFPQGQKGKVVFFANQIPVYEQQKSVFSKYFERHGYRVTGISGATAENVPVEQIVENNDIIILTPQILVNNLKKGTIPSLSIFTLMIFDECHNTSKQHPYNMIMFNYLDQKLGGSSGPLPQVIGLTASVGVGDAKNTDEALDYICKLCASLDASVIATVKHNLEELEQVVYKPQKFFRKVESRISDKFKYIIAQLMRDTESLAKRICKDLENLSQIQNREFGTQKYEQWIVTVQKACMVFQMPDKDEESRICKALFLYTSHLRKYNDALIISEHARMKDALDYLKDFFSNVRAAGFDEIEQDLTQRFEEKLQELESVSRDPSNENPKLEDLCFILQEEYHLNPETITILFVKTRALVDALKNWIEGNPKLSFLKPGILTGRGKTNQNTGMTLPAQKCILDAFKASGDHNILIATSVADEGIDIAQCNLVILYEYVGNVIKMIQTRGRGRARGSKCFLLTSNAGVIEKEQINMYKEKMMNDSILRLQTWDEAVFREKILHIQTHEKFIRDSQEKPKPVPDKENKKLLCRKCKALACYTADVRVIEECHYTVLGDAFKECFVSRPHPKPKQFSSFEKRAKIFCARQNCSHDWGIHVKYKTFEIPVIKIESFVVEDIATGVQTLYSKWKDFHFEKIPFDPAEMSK
The test is described as above.

These are yes or no findings as the source states them, for the method shown. In cells and extracts the contact can be indirect. Some binding calls cover weakened binding; strength is not graded here. Sequences can lack the tags named with a protein.

OPTN (from UniProt Q96CV9 1-577): the binding result in test [1] and in test [2] was “binds” in each case. On to p62/SQSTM1 (from UniProt Q13501 1-440), for which, in test [1], the binding result was “binds”.
